Some of the results follow. Many values rest on one well or one pass, so single values are uncertain.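 Imaging used 1,536-well plates; nuclei positive for cleaved PARP by antibody were divided by total DNA-stained nuclei to yield the apoptosis fraction. Doses for screening kept most cells viable, and cell lines differ markedly in resting and induced cleaved-PARP levels.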
Tests used:
Assay in all cases: cleaved PARP positive nuclei fraction relative to DMSO control; melanoma cells; higher = more apoptosis
Details in all cases: library dose: low library concentration; 72 h
[1] = tested on: MZ2-MEL
[2] = tested on: MeWo
[3] = tested on: RPMI7951
[4] = tested on: RVH-421
[5] = tested on: SkMel28
[6] = tested on: SkMel2
[7] = tested on: SkMel30
[8] = tested on: UACC62
[9] = tested on: WM115
[10] = tested on: WM1716
[11] = tested on: WM1745
[12] = tested on: WM3526
[13] = tested on: WM3619
[14] = tested on: WM451Lu

Row | Compound | cleaved PARP positive nuclei fraction [1] [%] | cleaved PARP positive nuclei fraction [2] [%] | cleaved PARP positive nuclei fraction [3] [%] | cleaved PARP positive nuclei fraction [4] [%] | cleaved PARP positive nuclei fraction [5] [%] | cleaved PARP positive nuclei fraction [6] [%] | cleaved PARP positive nuclei fraction [7] [%] | cleaved PARP positive nuclei fraction [8] [%] | cleaved PARP positive nuclei fraction [9] [%] | cleaved PARP positive nuclei fraction [10] [%] | cleaved PARP positive nuclei fraction [11] [%] | cleaved PARP positive nuclei fraction [12] [%] | cleaved PARP positive nuclei fraction [13] [%] | cleaved PARP positive nuclei fraction [14] [%]
1 | CCCS(=O)(=O)Nc1ccc(F)c(C(=O)c2c[nH]c3ncc(Cl)cc23)c1F + Cn1nnc2c(C(N)=O)ncn2c1=O [temozolomide] (first compound 0.08 µM, partner dose 2 µM) | 120 | 158 | 77.6 | 139 | 48.2 | 58.8 | 232 | 420 | 87.8 | 345 | 96.1 | 250 | 100 | 54
2 | CCCS(=O)(=O)Nc1ccc(F)c(C(=O)c2c[nH]c3ncc(Cl)cc23)c1F + Nc1nc(F)nc2c1ncn2[C@@H]1O[C@H](CO)[C@@H](O)[C@@H]1O [fludarabine] (first compound 0.08 µM, partner dose 0.2 µM) | 105 | 862 | 87.2 | 153 | 205 | 689 | 956 | 234 | 144 | 111 | 90.4 | 2120 | 101 | 386
3 | CNC(=O)c1cc(Oc2ccc(NC(=O)Nc3ccc(Cl)c(C(F)(F)F)c3)cc2)ccn1 [sorafenib] + CS(=O)(=O)CCNCc1ccc(-c2ccc3ncnc(Nc4ccc(OCc5cccc(F)c5)c(Cl)c4)c3c2)o1 [lapatinib] (first compound 0.4 µM, partner dose 0.8 µM) | 69.7 | 59 | 139 | 43.9 | 79.6 | 68.9 | 49.5 | 132 | 81.7 | 28 | 89.7 | 188 | 98.9 | 88.3
4 | Nc1ccn([C@@H]2O[C@H](CO)[C@@H](O)C2(F)F)c(=O)n1 [gemcitabine] + Cn1nnc2c(C(N)=O)ncn2c1=O [temozolomide] (first compound 0.0004 µM, partner dose 2 µM) | 122 | 123 | 86.4 | 204 | 101 | 58.5 | 202 | 51 | 101 | 181 | 111 | 114 | 111 | 45.4
5 | CN1CCN(c2ccc3nc(-c4c(N)c5c(F)cccc5[nH]c4=O)[nH]c3c2)CC1 [Dovitinib] + O=C(O)[C@@H]1[O][Sb](=[O])([O][Sb]2(=[O])[O][C@H]([C@H](O)CO)[C@H](O)[C@H](C(=O)O)[O]2)[O][C@H]([C@H](O)CO)[C@@H]1O [stibogluconate] (first compound 0.1 µM, partner dose 2 µM) | 147 | 74.7 | 146 | 31.2 | 86 | 54.8 | 164 | 133 | 229 | 174 | 98.1 | 21.5 | 80.2 | 34.8
6 | CCCS(=O)(=O)Nc1ccc(F)c(C(=O)c2c[nH]c3ncc(Cl)cc23)c1F + COCC[n+]1c2c(n(Cc3cnccn3)c1C)C(=O)c1ccccc1C2=O [YM155] (first compound 0.08 µM, partner dose 0.0004 µM) | 57.5 | 101 | 136 | 112 | 156 | 92.4 | 81.1 | 556 | 101 | 28.7 | 119 | 186 | 118 | 120
7 | CNC(=O)c1cc(Oc2ccc(NC(=O)Nc3ccc(Cl)c(C(F)(F)F)c3)cc2)ccn1 [sorafenib] + Clc1ccc(Nc2nnc(Cc3ccncc3)c3ccccc23)cc1 [vatalanib] (first compound 0.4 µM, partner dose 2 µM) | 60.4 | 189 | 101 | 223 | 172 | 79.8 | 23.3 | 282 | 121 | 66.3 | 93.1 | 236 | 94.5 | 60.5
8 | CS(=O)(=O)CCNCc1ccc(-c2ccc3ncnc(Nc4ccc(OCc5cccc(F)c5)c(Cl)c4)c3c2)o1 [lapatinib] + C=C(c1ccc(C(=O)O)cc1)c1cc2c(cc1C)C(C)(C)CCC2(C)C [Bexarotene] (first compound 0.8 µM, partner dose 2 µM) | 114 | 217 | 73.2 | 34.4 | 101 | 70 | 76.6 | 37.4 | 53.5 | 298 | 89.3 | 85 | 89.8 | 94.8
9 | CC(C)C[C@H](NC(=O)[C@H](Cc1ccccc1)NC(=O)c1cnccn1)B(O)O [Bortezomib] + O=C(O)[C@@H]1[O][Sb](=[O])([O][Sb]2(=[O])[O][C@H]([C@H](O)CO)[C@H](O)[C@H](C(=O)O)[O]2)[O][C@H]([C@H](O)CO)[C@@H]1O [stibogluconate] (first compound 0.001 µM, partner dose 2 µM) | 58.5 | 519 | 56.7 | 139 | 77.8 | 78.2 | 28.8 | 103 | 23.5 | 3530 | 108 | 46.3 | 230 | 41.7
10 | CN1CCN(c2ccc3nc(-c4c(N)c5c(F)cccc5[nH]c4=O)[nH]c3c2)CC1 [Dovitinib] + COc1ccc(Cl)c(Nc2nc3ccccc3nc2NS(=O)(=O)c2cccc(NC(=O)C(C)(C)N)c2)c1 [XL147] (first compound 0.1 µM, partner dose 0.8 µM) | 118 | 82.8 | 60.7 | 44.1 | 75.3 | 161 | 425 | 121 | 34.9 | 135 | 243 | 27 | 115 | 77.3
11 | O=C(O)c1ccc2c(c1)nc(Nc1cccc(Cl)c1)c1ccncc12 + Nc1ncn([C@H]2C[C@H](O)[C@@H](CO)O2)c(=O)n1 [decitabine] (first compound 0.4 µM, partner dose 0.1 µM) | 104 | 47.6 | 95.8 | 76.6 | 248 | 54.3 | 69.6 | 75.3 | 325 | 190 | 96.6 | 196 | 122 | 98.7
12 | CN1CCN(c2ccc3nc(-c4c(N)c5c(F)cccc5[nH]c4=O)[nH]c3c2)CC1 [Dovitinib] + Cn1nnc2c(C(N)=O)ncn2c1=O [temozolomide] (first compound 0.1 µM, partner dose 2 µM) | 249 | 134 | 119 | 117 | 112 | 111 | 273 | 160 | 134 | 87.6 | 121 | 223 | 87.5 | 237
13 | O=C(O)[C@@H]1[O][Sb](=[O])([O][Sb]2(=[O])[O][C@H]([C@H](O)CO)[C@H](O)[C@H](C(=O)O)[O]2)[O][C@H]([C@H](O)CO)[C@@H]1O (stereo not given in full) [stibogluconate] + Nc1ccn([C@@H]2O[C@H](CO)[C@@H](O)C2(F)F)c(=O)n1 [gemcitabine] (first compound 2 µM, partner dose 0.0004 µM) | 278 | 141 | 50.8 | 543 | 115 | 96.1 | 41.6 | 93.3 | 56.2 | 112 | 137 | 153 | 148 | 153
14 | Cc1cc(Nc2cc(N3CCN(C)CC3)nc(/C=C/c3ccccc3)n2)n[nH]1 + CN1CCN(c2ccc3nc(-c4c(N)c5c(F)cccc5[nH]c4=O)[nH]c3c2)CC1 [Dovitinib] (first compound 0.04 µM, partner dose 0.1 µM) | 47.6 | 109 | 101 | 232 | 81.6 | 49.5 | 150 | 79.6 | 99.1 | 93.5 | 104 | 53.1 | 85.1 | 148
15 | C=C(c1ccc(C(=O)O)cc1)c1cc2c(cc1C)C(C)(C)CCC2(C)C [Bexarotene] + Nc1nc(F)nc2c1ncn2[C@@H]1O[C@H](CO)[C@@H](O)[C@@H]1O [fludarabine] (first compound 2 µM, partner dose 0.2 µM) | 142 | 303 | 220 | 53.2 | 50.8 | 280 | 801 | 95 | 65 | 38.3 | 108 | 518 | 88.6 | 140
16 | C=C(c1ccc(C(=O)O)cc1)c1cc2c(cc1C)C(C)(C)CCC2(C)C [Bexarotene] + Nc1ccn([C@@H]2O[C@H](CO)[C@@H](O)C2(F)F)c(=O)n1 [gemcitabine] (first compound 2 µM, partner dose 0.0004 µM) | 97.6 | 88 | 250 | 65.1 | 45.4 | 90.4 | 30.5 | 43.6 | 47 | 167 | 226 | 94.9 | 104 | 45.9
17 | CCCS(=O)(=O)Nc1ccc(F)c(C(=O)c2c[nH]c3ncc(Cl)cc23)c1F + Cn1c(Nc2ccc(C(F)(F)F)cc2)nc2cc(Oc3ccnc(-c4ncc(C(F)(F)F)[nH]4)c3)ccc21 [CHIR265] (first compound 0.08 µM, partner dose 0.08 µM) | 181 | 105 | 47.3 | 76.9 | 271 | 215 | 75.5 | 84.8 | 505 | 180 | 128 | 79.4 | 103 | 48.7
18 | Cc1cc(Nc2cc(N3CCN(C)CC3)nc(/C=C/c3ccccc3)n2)n[nH]1 + Nc1nc(F)nc2c1ncn2[C@@H]1O[C@H](CO)[C@@H](O)[C@@H]1O [fludarabine] (first compound 0.04 µM, partner dose 0.2 µM) | 36.3 | 1250 | 84.3 | 107 | 88.9 | 300 | 692 | 171 | 183 | 66.6 | 111 | 1090 | 90 | 146
19 | CS(=O)(=O)CCNCc1ccc(-c2ccc3ncnc(Nc4ccc(OCc5cccc(F)c5)c(Cl)c4)c3c2)o1 [lapatinib] + COCC[n+]1c2c(n(Cc3cnccn3)c1C)C(=O)c1ccccc1C2=O [YM155] (first compound 0.8 µM, partner dose 0.0004 µM) | 138 | 104 | 263 | 190 | 87.3 | 39.2 | 80.3 | 26.2 | 153 | 22.1 | 117 | 91.9 | 83.8 | 106
20 | CC(C)C[C@H](NC(=O)[C@H](Cc1ccccc1)NC(=O)c1cnccn1)B(O)O [Bortezomib] + OCc1c[nH]c2ccccc12 [Indole-3-carbinol] (first compound 0.001 µM, partner dose 0.8 µM) | 126 | 120 | 119 | 243 | 174 | 113 | 109 | 47.7 | 51.9 | 988 | 109 | 42.3 | 321 | 81.3

From no. 11 to 12, as listed above:
Row | Compound | cleaved PARP positive nuclei fraction [1] [%] | cleaved PARP positive nuclei fraction [2] [%] | cleaved PARP positive nuclei fraction [3] [%] | cleaved PARP positive nuclei fraction [4] [%] | cleaved PARP positive nuclei fraction [5] [%] | cleaved PARP positive nuclei fraction [6] [%] | cleaved PARP positive nuclei fraction [7] [%] | cleaved PARP positive nuclei fraction [8] [%] | cleaved PARP positive nuclei fraction [9] [%] | cleaved PARP positive nuclei fraction [10] [%] | cleaved PARP positive nuclei fraction [11] [%] | cleaved PARP positive nuclei fraction [12] [%] | cleaved PARP positive nuclei fraction [13] [%] | cleaved PARP positive nuclei fraction [14] [%]
11 | O=C(O)c1ccc2c(c1)nc(Nc1cccc(Cl)c1)c1ccncc12 + Nc1ncn([C@H]2C[C@H](O)[C@@H](CO)O2)c(=O)n1 [decitabine] (first compound 0.4 µM, partner dose 0.1 µM) | 104 | 47.6 | 95.8 | 76.6 | 248 | 54.3 | 69.6 | 75.3 | 325 | 190 | 96.6 | 196 | 122 | 98.7
12 | CN1CCN(c2ccc3nc(-c4c(N)c5c(F)cccc5[nH]c4=O)[nH]c3c2)CC1 [Dovitinib] + Cn1nnc2c(C(N)=O)ncn2c1=O [temozolomide] (first compound 0.1 µM, partner dose 2 µM) | 249 | 134 | 119 | 117 | 112 | 111 | 273 | 160 | 134 | 87.6 | 121 | 223 | 87.5 | 237

— the supplement of paper PMC4604168 (melanoma cell lines)
